Binding data for three molecules are collected here from patent publication US20130224187A1 (Alexion, published 2013).

No constants are given. Whether binding was seen depends on the method and setting. Binding seen in cells or lysates may run through a third protein. Some binding calls cover weakened binding; strength is not graded here.

The chains are these.
T1: rhesus macaque C5a (rhesus macaque)
T1 sequence: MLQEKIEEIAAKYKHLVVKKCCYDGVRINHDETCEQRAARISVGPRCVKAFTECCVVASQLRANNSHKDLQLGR

T2: cynomolgus macaque C5a (cynomolgus macaque)
T2 construct: also called recombinant cynomolgus macaque C5a; cynomolgus C5a
T2 chain: T1 sequence

B1: BNJ369 (antibody, human IgG2, kappa)
heavy: QVQLVQSGAEVKKPGASVKVSCKASGYTFTDYSMDWVRQAPGQGLEWMGAIHLNTGYTNYNQKFKGRVTMTRDTSTSTVYMELSSLRSEDTAVYYCARGFYDGYSPMDYWGQGTTVTVSSASTKGPSVFPLAPCSRSTSESTAALGCLVKDYFPEPVTVSWNSGALTSGVHTFPAVLQSSGLYSLSSVVTVPSSNFGTQTYTCNVDHKPSNTKVDKTVERKCCVECPPCPAPPVAGPSVFLFPPKPKDTLMISRTPEVTCVVVDVSQEDPEVQFNWYVDGVEVHNAKTKPREEQFNSTYRVVSVLTVLHQDWLNGKEYKCKVSNKGLPSSIEKTISKAKGQPREPQVYTLPPSQEEMTKNQVSLTCLVKGFYPSDIAVEWESNGQPENNYKTTPPVLDSDGSFFLYSRLTVDKSRWQEGNVFSCSVMHEALHNHYTQKSLSLSLGK
light: DIVMTQSPDSLAVSLGERATINCRASESVDSYGNSFMHWYQQKPGQPPKLLIYRASNLESGVPDRFSGSGSGTDFTLTISSLQAEDVAVYYCQQSNEDPYTFGGGTKVEIKRTVAAPSVFIFPPSDEQLKSGTASVVCLLNNFYPREAKVQWKVDNALQSGNSQESVTEQDSKDSTYSLSSTLTLSKADYEKHKVYACEVTHQGLSSPVTKSFNRGEC
notes: Humanized full length IgG
B2: BNJ364 (antibody, human IgG2, kappa)
heavy: QVQLVQSGAEVKKPGASVKVSCKASGYTFTDYSMDWVRQAPGQGLEWMGAINPNSGGTNYNQKFKDRVTMTRDTSTSTVYMELSSLRSEDTAVYYCARSGSYDGYYAMDYWGQGTTVTVSSASTKGPSVFPLAPCSRSTSESTAALGCLVKDYFPEPVTVSWNSGALTSGVHTFPAVLQSSGLYSLSSVVTVPSSNFGTQTYTCNVDHKPSNTKVDKTVERKCCVECPPCPAPPVAGPSVFLFPPKPKDTLMISRTPEVTCVVVDVSHEDPEVQFNWYVDGVEVHNAKTKPREEQFNSTFRVVSVLTVVHQDWLNGKEYKCKVSNKGLPAPIEKTISKTKGQPREPQVYTLPPSREEMTKNQVSLTCLVKGFYPSDISVEWESNGQPENNYKTTPPMLDSDGSFFLYSKLTVDKSRWQQGNVFSCSVMHEALHNHYTQKSLSLSPGK
light: B1 light
notes: Humanized full length IgG
B3: BNJ366 (antibody, human IgG2, kappa)
heavy: QVQLVQSGAEVKKPGASVKVSCKASGYTFTDYSMDWVRQAPGQGLEWMGAIHLNTGYTNYNQKFKGRVTMTRDTSTSTVYMELSSLRSEDTAVYYCARGFYDGYSPMDYWGQGTTVTVSSASTKGPSVFPLAPCSRSTSESTAALGCLVKDYFPEPVTVSWNSGALTSGVHTFPAVLQSSGLYSLSSVVTVPSSNFGTQTYTCNVDHKPSNTKVDKTVERKCCVECPPCPAPPVAGPSVFLFPPKPKDTLMISRTPEVTCVVVDVSHEDPEVQFNWYVDGVEVHNAKTKPREEQFNSTFRVVSVLTVVHQDWLNGKEYKCKVSNKGLPAPIEKTISKTKGQPREPQVYTLPPSREEMTKNQVSLTCLVKGFYPSDISVEWESNGQPENNYKTTPPMLDSDGSFFLYSKLTVDKSRWQQGNVFSCSVMHEALHNHYTQKSLSLSPGK
light: B1 light
notes: Humanized full length IgG

One experiment has as its target T1, rhesus macaque C5a (rhesus macaque). Kind of experiment: co-immunoprecipitation from zymosan-activated serum with protein A beads; western blot with anti-C5a neoepitope antibody. Background: In western blotting, separated proteins are transferred to a membrane and probed.
For B1, the binding entry is listed as “binds”.
B2: the binding entry was “binds”.
As to B3, the binding entry is given as “binds”.

The target in a further experiment is T2, cynomolgus macaque C5a. The experiment is described as above.
For B1, the binding entry is on record as “binds”.
B2: the binding result was “binds”.
As to B3, the binding result was “binds”.
